# Laboratory results: patent US20150141460A1, “Anti-inflammatory Compositions” (Cambridge Enterprise Limited, priority 2007, published 2015)
# At least one read-out could not be matched to a standard name with certainty. Some of these results come from one statement about several compounds together.
# Experiment: Pharmacokinetics following a single dose in rat (1 mg/kg iv, 3 mg/kg oral), LC-MS/MS, one-compartment model
# Assay type: in vivo
# Conditions: for time at which Cmax was achieved (Tmax) after oral dosing: 3 mg/kg oral; for oral exposure, fold less than (I′): single oral dose 3 mg/kg
# Description: Compounds were administered as a single dose (either 1 mg/kg bodyweight in 5% DMSO via the intravenous route or 3 mg/kg in 1% carboxymethylcellulose via the oral route) to three adult rats (using different rats for each compound and each route of administration).
# Blood was then sampled at various time points (including just prior to dose administration) out to 24 hrs post dose, and the level of the various compounds was assessed using a validated LC-MS/MS assay. Briefly, 3-5 μl of the deproteinised sample was applied to a Waters Atlantis (C18 20×2.1 mm, 3 μm bead size) reverse phase chromatography column equilibrated in 0.1% formic acid in 95:5 water:actetonitrile. Over 3.5 minutes bound material was gradient eluted reaching 0.1% formic acid in 5:95 water:acetonitrile, followed by a step gradient back to 0.1% formic acid in 95:5 water:acetonitrile. The column eluent was then directed to an Applied Biosystems API 4000/3200 QTrap MS/MS mass spectrometer, with a TurboIonspray™ ion source operating in positive ion mode. The interface temperature was set at 650° C., with a 40 ms dwell time for each MRM transition, monitoring the following ions:
# The internal standard in each determination was the related compound (S)-3-(2′,2′-dimethyl-propanoylamino)-caprolactam, which was spiked into the sample prior to deproteinization. The lower limit of quantitation (LLOQ) for this assay was 2.4 ng/ml for each compound except (I′), where it was 38.1 ng/ml.
# Following LC-MS/MS analysis of each collected sample, the pharmacokinetic disposition of the compound was modelled using Kinetica software, a well known software package for such applications.
# Compounds (VI) and (VII) were subject to pharmacokinetic analysis in rat using exactly the same protocols previous applied for compounds (I) through (V) in example 1.
# We therefore subjected (VIII) to pharmacokinetic analysis in rat using exactly the same protocols previous applied for compounds (I′) through (VII) in examples 1 and 7.
# The isolated (R)-enantiomer of (I) was therefore synthesised (exactly as described herein for the isolated (S)-enantiomer, but replacing the (S)-ornithine starting material with commercially available (R)-ornithine of high stereochemical purity), and the PK properties of this agent, in rat, was determined using the identical methodology described above (see Examples 1, 7 and 8).
smiles,measurement,value
"O=C1NCCCC1NC(=O)C12CC3CC(CC(C3)C1)C2 (stereo not drawn) [(VII), 3-(adamanatane-1-carbonylamino)-tetrahydropyridin-2-one]","clearance, fold higher than (I′)",more than 10 fold
same,time at which Cmax was achieved (Tmax) after oral dosing,≤ 15 min
same,"oral exposure, fold less than (I′)",25-50 fold
"CCCCCCCCCCC(C)(C)C(=O)NC1CCCNC1=O (stereo not drawn) [Compound (VI), 3-(2′,2′-dimethyldodecanoylamino)-tetrahydropyridin-2-one]","clearance, fold higher than (I′)",more than 10 fold
same,time at which Cmax was achieved (Tmax) after oral dosing,60 and 120
same,"oral exposure, fold less than (I′)",25-50 fold
